Experimental data as given in the supplement of paper PMC10849652.
This is one part of the list.

Amino acid sequences for entries named in this document (tags omitted). A change or cut given only in a name is not applied to a line headed by its entry.
UniProt P46821: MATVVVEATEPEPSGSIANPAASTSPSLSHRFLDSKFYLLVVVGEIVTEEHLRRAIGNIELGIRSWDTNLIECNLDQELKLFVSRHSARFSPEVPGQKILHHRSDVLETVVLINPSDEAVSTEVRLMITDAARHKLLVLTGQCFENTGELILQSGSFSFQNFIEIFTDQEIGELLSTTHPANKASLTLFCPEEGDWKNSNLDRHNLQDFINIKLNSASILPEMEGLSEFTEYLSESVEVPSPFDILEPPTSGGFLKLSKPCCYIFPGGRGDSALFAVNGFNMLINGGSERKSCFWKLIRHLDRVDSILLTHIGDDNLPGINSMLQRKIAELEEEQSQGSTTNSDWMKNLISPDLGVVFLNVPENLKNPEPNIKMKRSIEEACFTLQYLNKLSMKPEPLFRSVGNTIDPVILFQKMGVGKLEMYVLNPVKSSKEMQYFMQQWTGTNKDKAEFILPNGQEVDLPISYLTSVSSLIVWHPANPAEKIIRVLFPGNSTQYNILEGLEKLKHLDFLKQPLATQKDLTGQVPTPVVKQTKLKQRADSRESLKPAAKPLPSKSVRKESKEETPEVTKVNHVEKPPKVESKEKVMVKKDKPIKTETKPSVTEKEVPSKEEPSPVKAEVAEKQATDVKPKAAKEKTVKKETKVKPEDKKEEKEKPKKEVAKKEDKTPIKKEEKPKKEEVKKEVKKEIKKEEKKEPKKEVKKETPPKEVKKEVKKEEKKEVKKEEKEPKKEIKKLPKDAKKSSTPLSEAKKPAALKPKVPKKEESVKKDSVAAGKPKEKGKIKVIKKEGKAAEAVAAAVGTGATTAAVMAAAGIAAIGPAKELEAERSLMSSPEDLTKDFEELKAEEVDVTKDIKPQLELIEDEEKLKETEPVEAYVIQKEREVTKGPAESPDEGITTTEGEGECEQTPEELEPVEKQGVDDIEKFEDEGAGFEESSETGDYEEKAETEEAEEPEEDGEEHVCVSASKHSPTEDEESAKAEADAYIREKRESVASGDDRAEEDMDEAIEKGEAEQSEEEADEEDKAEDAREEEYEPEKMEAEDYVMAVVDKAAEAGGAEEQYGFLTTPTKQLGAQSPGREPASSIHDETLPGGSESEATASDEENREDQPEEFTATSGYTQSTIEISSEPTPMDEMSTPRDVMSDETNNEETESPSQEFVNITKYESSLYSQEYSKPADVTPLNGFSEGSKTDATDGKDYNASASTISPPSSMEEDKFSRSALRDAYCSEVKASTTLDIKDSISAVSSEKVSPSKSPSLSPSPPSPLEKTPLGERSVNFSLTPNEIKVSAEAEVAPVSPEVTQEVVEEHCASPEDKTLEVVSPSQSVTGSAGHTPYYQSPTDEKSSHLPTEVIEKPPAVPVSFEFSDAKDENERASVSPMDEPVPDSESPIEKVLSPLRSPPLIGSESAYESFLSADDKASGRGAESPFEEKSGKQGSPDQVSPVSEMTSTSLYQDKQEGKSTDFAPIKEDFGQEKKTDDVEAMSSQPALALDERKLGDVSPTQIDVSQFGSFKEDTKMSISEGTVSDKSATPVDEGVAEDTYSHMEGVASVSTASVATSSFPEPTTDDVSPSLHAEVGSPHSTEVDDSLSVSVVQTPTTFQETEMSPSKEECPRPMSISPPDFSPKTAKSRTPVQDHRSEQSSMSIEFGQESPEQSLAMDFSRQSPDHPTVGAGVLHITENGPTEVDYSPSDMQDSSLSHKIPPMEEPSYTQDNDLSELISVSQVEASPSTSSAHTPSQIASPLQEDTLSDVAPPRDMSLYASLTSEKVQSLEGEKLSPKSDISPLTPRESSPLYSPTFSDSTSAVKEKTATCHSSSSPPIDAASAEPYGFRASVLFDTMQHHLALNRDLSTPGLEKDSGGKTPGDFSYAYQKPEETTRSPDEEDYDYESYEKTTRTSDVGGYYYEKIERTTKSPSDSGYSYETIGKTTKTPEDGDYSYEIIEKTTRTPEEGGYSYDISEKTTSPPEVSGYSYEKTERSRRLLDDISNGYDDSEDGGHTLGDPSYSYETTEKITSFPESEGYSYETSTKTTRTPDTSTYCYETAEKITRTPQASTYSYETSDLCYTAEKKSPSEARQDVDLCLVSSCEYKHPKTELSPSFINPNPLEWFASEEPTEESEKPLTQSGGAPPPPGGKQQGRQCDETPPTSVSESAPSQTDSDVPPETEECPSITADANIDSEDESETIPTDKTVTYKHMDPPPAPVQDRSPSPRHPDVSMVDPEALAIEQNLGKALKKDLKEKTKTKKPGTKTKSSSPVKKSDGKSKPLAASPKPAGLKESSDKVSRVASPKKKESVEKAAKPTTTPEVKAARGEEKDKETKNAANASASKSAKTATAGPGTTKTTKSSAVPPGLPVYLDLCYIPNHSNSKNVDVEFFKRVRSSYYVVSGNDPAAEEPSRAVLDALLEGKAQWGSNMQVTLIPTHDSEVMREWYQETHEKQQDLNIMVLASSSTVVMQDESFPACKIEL
UniProt Q15691: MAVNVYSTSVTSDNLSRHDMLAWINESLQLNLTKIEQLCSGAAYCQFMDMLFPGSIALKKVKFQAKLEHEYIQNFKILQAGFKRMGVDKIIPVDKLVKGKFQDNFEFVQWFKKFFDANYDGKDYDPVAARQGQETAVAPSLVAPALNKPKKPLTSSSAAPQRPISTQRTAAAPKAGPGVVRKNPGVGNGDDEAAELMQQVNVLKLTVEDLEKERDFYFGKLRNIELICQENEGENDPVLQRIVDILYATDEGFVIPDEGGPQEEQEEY
UniProt Q9Y2U5: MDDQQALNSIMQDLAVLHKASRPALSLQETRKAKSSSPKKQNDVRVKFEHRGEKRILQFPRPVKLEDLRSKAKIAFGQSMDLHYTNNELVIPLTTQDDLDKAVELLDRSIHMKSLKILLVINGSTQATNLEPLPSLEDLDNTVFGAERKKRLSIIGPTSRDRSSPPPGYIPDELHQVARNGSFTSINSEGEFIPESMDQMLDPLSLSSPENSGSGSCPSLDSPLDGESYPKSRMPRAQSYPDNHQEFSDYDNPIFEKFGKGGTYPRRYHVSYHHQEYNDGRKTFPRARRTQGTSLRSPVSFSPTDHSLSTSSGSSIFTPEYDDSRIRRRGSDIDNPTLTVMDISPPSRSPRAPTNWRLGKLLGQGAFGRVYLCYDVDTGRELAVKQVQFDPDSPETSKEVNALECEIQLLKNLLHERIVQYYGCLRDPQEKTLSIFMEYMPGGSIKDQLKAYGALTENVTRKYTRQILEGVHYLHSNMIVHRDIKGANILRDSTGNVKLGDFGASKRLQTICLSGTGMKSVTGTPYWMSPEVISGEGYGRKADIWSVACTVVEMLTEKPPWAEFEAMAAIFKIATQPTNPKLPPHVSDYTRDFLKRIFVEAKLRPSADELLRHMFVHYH
UniProt Q7Z3D4: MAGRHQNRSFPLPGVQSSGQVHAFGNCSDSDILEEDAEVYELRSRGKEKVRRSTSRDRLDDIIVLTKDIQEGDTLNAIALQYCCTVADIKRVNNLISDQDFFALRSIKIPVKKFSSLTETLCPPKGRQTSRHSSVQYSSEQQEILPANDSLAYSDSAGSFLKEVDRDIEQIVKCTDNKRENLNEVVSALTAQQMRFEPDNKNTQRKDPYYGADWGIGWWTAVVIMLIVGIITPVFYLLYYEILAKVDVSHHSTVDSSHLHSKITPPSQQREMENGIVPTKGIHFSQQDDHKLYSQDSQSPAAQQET
UniProt P45985: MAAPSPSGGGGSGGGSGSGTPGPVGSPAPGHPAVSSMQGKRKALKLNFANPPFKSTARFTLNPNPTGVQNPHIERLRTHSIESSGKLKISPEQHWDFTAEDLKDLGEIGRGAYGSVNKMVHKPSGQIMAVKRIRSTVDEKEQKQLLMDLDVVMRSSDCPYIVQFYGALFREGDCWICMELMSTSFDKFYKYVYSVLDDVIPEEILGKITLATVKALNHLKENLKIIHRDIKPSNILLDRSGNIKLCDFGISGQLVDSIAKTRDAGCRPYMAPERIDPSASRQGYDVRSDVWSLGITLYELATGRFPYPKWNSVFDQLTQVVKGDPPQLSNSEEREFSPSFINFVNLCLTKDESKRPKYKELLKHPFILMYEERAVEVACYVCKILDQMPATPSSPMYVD
UniProt Q9Y333: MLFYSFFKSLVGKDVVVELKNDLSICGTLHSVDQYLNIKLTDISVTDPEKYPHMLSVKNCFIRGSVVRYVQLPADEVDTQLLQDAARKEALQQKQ
UniProt P33908: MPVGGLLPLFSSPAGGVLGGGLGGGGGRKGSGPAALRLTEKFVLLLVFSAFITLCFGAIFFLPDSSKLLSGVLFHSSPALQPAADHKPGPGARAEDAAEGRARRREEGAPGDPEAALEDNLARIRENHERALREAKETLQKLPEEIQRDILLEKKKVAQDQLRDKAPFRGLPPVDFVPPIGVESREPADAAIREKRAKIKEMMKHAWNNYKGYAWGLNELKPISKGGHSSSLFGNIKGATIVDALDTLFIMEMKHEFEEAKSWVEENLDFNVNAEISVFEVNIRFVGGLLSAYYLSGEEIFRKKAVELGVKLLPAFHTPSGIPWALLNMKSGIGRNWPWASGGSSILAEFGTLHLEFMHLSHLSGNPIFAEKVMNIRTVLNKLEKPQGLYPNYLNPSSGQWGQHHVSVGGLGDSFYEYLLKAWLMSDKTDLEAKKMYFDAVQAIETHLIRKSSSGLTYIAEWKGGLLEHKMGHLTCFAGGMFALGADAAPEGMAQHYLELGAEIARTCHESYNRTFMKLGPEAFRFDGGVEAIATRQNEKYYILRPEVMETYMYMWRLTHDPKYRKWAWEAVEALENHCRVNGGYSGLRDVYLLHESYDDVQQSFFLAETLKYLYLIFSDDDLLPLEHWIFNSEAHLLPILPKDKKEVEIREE
UniProt Q96S90: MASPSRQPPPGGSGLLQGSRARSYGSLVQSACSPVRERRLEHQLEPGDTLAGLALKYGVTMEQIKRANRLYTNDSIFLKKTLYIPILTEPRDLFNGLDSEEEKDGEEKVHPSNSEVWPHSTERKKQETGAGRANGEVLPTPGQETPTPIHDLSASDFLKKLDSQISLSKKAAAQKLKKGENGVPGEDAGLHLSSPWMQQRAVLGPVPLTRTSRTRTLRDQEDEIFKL
UniProt P49641: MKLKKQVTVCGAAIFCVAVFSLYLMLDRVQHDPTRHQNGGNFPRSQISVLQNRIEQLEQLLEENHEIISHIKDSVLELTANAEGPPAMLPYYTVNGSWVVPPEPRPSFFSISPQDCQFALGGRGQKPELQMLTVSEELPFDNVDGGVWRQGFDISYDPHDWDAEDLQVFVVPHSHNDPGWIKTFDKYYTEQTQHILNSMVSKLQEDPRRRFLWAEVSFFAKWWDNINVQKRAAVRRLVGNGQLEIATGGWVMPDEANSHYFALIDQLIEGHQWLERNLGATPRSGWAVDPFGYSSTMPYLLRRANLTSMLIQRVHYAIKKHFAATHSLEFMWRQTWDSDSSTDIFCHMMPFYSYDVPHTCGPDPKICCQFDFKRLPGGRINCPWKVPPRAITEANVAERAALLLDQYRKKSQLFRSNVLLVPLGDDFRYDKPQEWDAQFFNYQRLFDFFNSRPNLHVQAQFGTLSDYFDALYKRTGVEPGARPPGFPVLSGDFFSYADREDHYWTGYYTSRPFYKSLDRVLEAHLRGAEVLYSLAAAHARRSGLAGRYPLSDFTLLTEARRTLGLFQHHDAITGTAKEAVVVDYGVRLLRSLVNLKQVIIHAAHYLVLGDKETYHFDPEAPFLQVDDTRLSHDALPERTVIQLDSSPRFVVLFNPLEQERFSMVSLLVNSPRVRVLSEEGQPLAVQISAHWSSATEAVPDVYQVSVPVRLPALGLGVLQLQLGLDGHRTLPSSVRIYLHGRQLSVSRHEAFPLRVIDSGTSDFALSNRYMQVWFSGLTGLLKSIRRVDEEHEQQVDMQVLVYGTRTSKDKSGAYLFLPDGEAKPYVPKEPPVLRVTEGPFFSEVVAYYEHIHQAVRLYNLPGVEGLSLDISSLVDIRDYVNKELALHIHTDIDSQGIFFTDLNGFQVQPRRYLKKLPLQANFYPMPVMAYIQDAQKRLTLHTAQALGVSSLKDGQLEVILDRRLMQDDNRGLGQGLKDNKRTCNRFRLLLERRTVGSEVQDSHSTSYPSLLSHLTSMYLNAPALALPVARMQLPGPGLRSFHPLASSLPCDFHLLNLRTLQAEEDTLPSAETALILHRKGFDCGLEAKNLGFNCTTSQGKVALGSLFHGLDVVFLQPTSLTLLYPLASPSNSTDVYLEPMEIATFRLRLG
UniProt O43325: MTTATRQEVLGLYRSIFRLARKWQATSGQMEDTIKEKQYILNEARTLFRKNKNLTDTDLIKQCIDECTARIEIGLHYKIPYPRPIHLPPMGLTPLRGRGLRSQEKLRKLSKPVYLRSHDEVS

What was measured:
Assay in all cases: log2 fold change, soluble protein after heating vs DMSO (PISA); higher = thermal stabilisation; K562 cells, 10 uM, 30 min; active = over 0.2 and 3.5 SD of the protein, either way, in both replicates (recomputed)
[1] = compound: CS(=O)(=O)c1ccc(-c2cnc(N)c(C(=O)Nc3ccccc3)n2)cc1
Method in brief: (§1)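 K562 cells (2×10^6 cells/mL) were treated with 10 μM compound for 30 min, and aliquots were heated for 3 min over 48°C-58°C. Pooled aliquots were extracted in PBS with 0.5% NP-40 at 4°C, and the supernatant after 21,000xg for 90 min was measured by TMTpro 16plex LC-MS/MS with channel sums equalised. Reported thermal stability, relative to control samples and from duplicates, is a log2 fold change.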

[2] = compound: C[C@@H](Oc1cc(-c2cnn(C3CCNCC3)c2)cnc1N)c1c(Cl)ccc(F)c1Cl [crizotinib]
Method in brief: as §1

[3] = compound: C[C@@H]1COCCN1C2=NC(=NC(=C2)C3(CC3)S(=O)(=O)C)C4=C5C=CNC5=CC=C4
Method in brief: as §1

[4] = compound: C[C@H](C1=CC=C(C=C1)C(=O)NC2=C3C=CNC3=NC=C2)N
Method in brief: as §1

[5] = compound: C[C@H](Nc1ncnc2nc[nH]c12)c1cc2cccc(Cl)c2c(=O)n1-c1ccccc1 [duvelisib]
Method in brief: as §1

[6] = compound: Cc1cc(Nc2cc(CN3CCOCC3)c3nc(C)c(Cc4ccc(Cl)cc4F)n3n2)n[nH]1 [gandotinib]
Method in brief: as §1

[7] = compound: Cc1cc(Nc2cc(N3CCN(C)CC3)nc(Sc3ccc(NC(=O)C4CC4)cc3)n2)n[nH]1 [tozasertib]
Method in brief: as §1

[8] = compound: Cc1cc(SCc2sc(-c3ccc(C(F)(F)F)cc3)nc2C)ccc1OCC(=O)O
Method in brief: as §1

[9] = compound: Cc1ccc(-n2nc(C(C)(C)C)cc2NC(=O)Nc2ccc(OCCN3CCOCC3)c3ccccc23)cc1 [doramapimod]
Method in brief: as §1

[10] = compound: Cc1ccc(C(=O)N(CCCN)[C@@H](c2nc3cc(Cl)ccc3c(=O)n2Cc2ccccc2)C(C)C)cc1 [ispinesib]
Method in brief: as §1

[11] = compound: Cc1ccc(NC(=O)c2ccc(CN3CC[C@H](N(C)C)C3)c(C(F)(F)F)c2)cc1Nc1nccc(-c2cncnc2)n1 [bafetinib]
Method in brief: as §1

[12] = compound: Cc1cccc(CC(=O)N2CCc3c2ccc(-c2cn(C)c4ncnc(N)c24)c3F)n1
Method in brief: as §1

[13] = compound: Cc1cn(-c2cc(NC(=O)c3ccc(C)c(Nc4nccc(-c5cccnc5)n4)c3)cc(C(F)(F)F)c2)cn1 [nilotinib]
Method in brief: as §1

[14] = compound: Cc1nc(Nc2n[nH]c3c2CN(C(=O)N[C@H](CN(C)C)c2ccccc2)C3(C)C)c2sccc2n1
Method in brief: as §1

[15] = compound: Cc1nc(Nc2ncc(C(=O)Nc3c(C)cccc3Cl)s2)cc(N2CCN(CCO)CC2)n1 [dasatinib]
Method in brief: as §1

[16] = compound: Cc1ncc(-c2ccnc(Nc3ccc(S(C)(=O)=O)cc3)n2)n1C(C)C
Method in brief: as §1

[17] = compound: Cn1cc(-c2ccc3c(c2)CCN3C(=O)Cc2cccc(C(F)(F)F)c2)c2c(N)ncnc21
Method in brief: as §1

[18] = compound: Cn1cc(-c2ccc3nnc(C(F)(F)c4ccc5ncccc5c4)n3n2)cn1
Method in brief: as §1

[19] = compound: Cn1cncc1[C@@](N)(c1ccc(Cl)cc1)c1ccc2c(c1)c(-c1cccc(Cl)c1)cc(=O)n2C [tipifarnib]
Method in brief: as §1

[20] = compound: FC(F)(F)c1ccc(/C=C/c2nc(COc3ccc(CCCCn4ccnn4)cc3)co2)cc1 [mubritinib]
Method in brief: as §1

Measured: log2 fold change

MAP1B (UniProt P46821)
inactive: [1] 0.024 | [2] 0.028 | [3] -0.067 | [4] 0.027 | [5] -0.022 | [6] 0.042 | [7] -0.002 | [8] -0.05 | [9] 0.008 | [10] 0.016 | [11] 0.037 | [12] -0.009 | [13] 0.025 | [14] 0.062 | [15] 0.079 | [16] -0.021 | [17] -0.022 | [18] -0.003 | [19] 0.006 | [20] 0.002

MAPRE1 (UniProt Q15691)
inactive: [1] 0.013 | [2] 0.021 | [3] 0.055 | [4] -0.055 | [5] 0.008 | [6] -0.12 | [7] 0.007 | [8] 0.024 | [9] -0.011 | [10] 0.021 | [11] -0.034 | [12] -0.008 | [13] -0.014 | [14] -0.042 | [15] -0.066 | [16] -0.008 | [17] 0.017 | [18] -0.033 | [19] -0.046 | [20] 0.018

MAP3K2 (UniProt Q9Y2U5)
inactive: [1] 0.042 | [2] -0.155 | [3] -0.043 | [4] -0.106 | [5] 0.057 | [6] -0.144 | [7] -0.379 | [8] 0.034 | [9] -0.012 | [10] -0.076 | [11] -0.016 | [12] 0.044 | [15] 0.035 | [17] 0.109 | [18] 0.066 | [19] 0.02 | [20] -0.177

Quoted from the entries so far (2 entries):
MAP1B (UniProt P46821)
inactive: [1] 0.024 | [2] 0.028 | [3] -0.067 | [4] 0.027 | [5] -0.022 | [6] 0.042 | [7] -0.002 | [8] -0.05 | [9] 0.008 | [10] 0.016 | [11] 0.037 | [12] -0.009 | [13] 0.025 | [14] 0.062 | [15] 0.079 | [16] -0.021 | [17] -0.022 | [18] -0.003 | [19] 0.006 | [20] 0.002

MAPRE1 (UniProt Q15691)
inactive: [1] 0.013 | [2] 0.021 | [3] 0.055 | [4] -0.055 | [5] 0.008 | [6] -0.12 | [7] 0.007 | [8] 0.024 | [9] -0.011 | [10] 0.021 | [11] -0.034 | [12] -0.008 | [13] -0.014 | [14] -0.042 | [15] -0.066 | [16] -0.008 | [17] 0.017 | [18] -0.033 | [19] -0.046 | [20] 0.018

Next part.

MACO1 (UniProt Q8N5G2)
inactive: [1] 0.002 | [2] -0.004 | [3] -0.049 | [4] 0.022 | [5] 0.033 | [6] -0.071 | [7] -0.029 | [8] 0.008 | [9] 0.037 | [10] -0.154 | [11] -0.003 | [12] -0.045 | [13] -0.011 | [14] 0.046 | [15] -0.098 | [16] 0.035 | [17] -0.052 | [18] -0.085 | [19] -0.021 | [20] 0.029

LYSMD3 (UniProt Q7Z3D4)
inactive: [1] -0.061 | [2] 0.035 | [3] 0.158 | [4] -0.215 | [5] -0.022 | [6] 0.063 | [7] -0.076 | [8] -0.034 | [9] -0.033 | [10] -0.039 | [11] -0.127 | [12] -0.123 | [13] -0.041 | [14] 0.054 | [15] 0.015 | [16] -0.028 | [17] 0.028 | [18] 0.063 | [19] -0.086 | [20] 0

MAP2K4 isoform 2 (UniProt P45985)
inactive: [1] -0.011 | [2] -0.068 | [3] 0.102 | [4] -0.049 | [5] 0.027 | [6] -0.007 | [7] 0 | [8] 0.021 | [9] -0.039 | [10] -0.006 | [11] 0.015 | [12] 0.108 | [13] 0.008 | [14] -0.016 | [15] -0.019 | [16] -0.038 | [17] 0.033 | [18] -0.029 | [19] 0.022 | [20] 0.079

LSM2 (UniProt Q9Y333)
inactive: [1] -0.038 | [2] 0.024 | [3] 0.01 | [4] -0.094 | [5] 0.034 | [6] -0.023 | [7] 0.005 | [8] -0.04 | [9] -0.017 | [10] 0.079 | [11] -0.048 | [12] 0 | [13] 0.018 | [14] 0.022 | [15] 0.056 | [16] 0.017 | [17] 0.026 | [18] 0.006 | [19] -0.005 | [20] 0.029

LTBR (UniProt P36941)
inactive: [1] 0.058 | [2] 0.089 | [3] -0.064 | [4] 0.024 | [5] -0.016 | [6] -0.083 | [7] -0.146 | [8] -0.103 | [9] 0.05 | [10] -0.02 | [11] -0.046 | [12] 0.002 | [15] 0.086 | [17] -0.107 | [18] 0.034 | [19] 0.03

MAN1A1 (UniProt P33908)
inactive: [1] 0.013 | [2] 0.089 | [3] 0.038 | [4] -0.077 | [5] 0.018 | [6] -0.009 | [7] 0.017 | [8] -0.06 | [9] 0 | [10] 0.099 | [11] -0.047 | [12] 0 | [13] 0.046 | [14] -0.062 | [15] 0.028 | [16] -0.045 | [17] 0.002 | [18] 0.092 | [19] 0.039 | [20] 0.012

LYSMD1 (UniProt Q96S90)
inactive: [1] -0.059 | [2] -0.008 | [3] 0.002 | [4] -0.021 | [5] 0.035 | [6] -0.155 | [7] -0.005 | [8] -0.021 | [9] 0.012 | [10] 0.006 | [11] -0.039 | [12] 0.032 | [13] 0.048 | [14] -0.058 | [15] 0.038 | [16] -0.018 | [17] 0.009 | [18] -0.048 | [19] -0.038 | [20] 0.064

MACF1 (UniProt Q9UPN3)
inactive: [1] -0.041 | [2] -0.038 | [3] -0.059 | [4] 0.115 | [5] 0 | [6] -0.061 | [7] 0.038 | [8] 0.08 | [9] 0.091 | [10] -0.131 | [11] 0.118 | [12] -0.003 | [13] 0.024 | [14] -0.143 | [15] -0.075 | [16] -0.086 | [17] -0.013 | [18] -0.004 | [19] 0.045 | [20] -0.009

MAP1S (UniProt Q66K74)
inactive: [1] 0.033 | [2] -0.093 | [3] -0.081 | [4] -0.025 | [5] -0.012 | [6] -0.024 | [7] 0.018 | [8] 0.067 | [9] -0.011 | [10] -0.048 | [11] 0.017 | [12] 0.012 | [13] -0.032 | [14] 0.032 | [15] -0.104 | [16] 0.042 | [17] -0.006 | [18] -0.013 | [19] -0.087 | [20] 0.021

MARCHF6 (UniProt O60337)
inactive: [1] -0.057 | [2] -0.104 | [3] -0.108 | [4] -0.104 | [5] 0.065 | [6] -0.158 | [7] 0.014 | [8] 0.023 | [9] 0.001 | [10] -0.095 | [11] -0.202 | [12] 0.031 | [13] -0.091 | [14] 0.011 | [15] -0.17 | [16] -0.004 | [17] -0.028 | [18] -0.034 | [19] -0.026 | [20] 0.031

MAN2A2 (UniProt P49641)
inactive: [1] 0.015 | [2] 0.055 | [3] -0.038 | [4] 0.086 | [5] -0.026 | [6] 0.004 | [7] -0.008 | [8] 0.045 | [9] 0.028 | [10] 0.054 | [11] 0.032 | [12] -0.001 | [13] 0.037 | [14] -0.028 | [15] -0.013 | [16] -0.076 | [17] 0.003 | [18] -0.014 | [19] 0.039 | [20] 0.031

LYRM1 (UniProt O43325)
inactive: [1] 0.019 | [2] -0.262 | [3] 0.002 | [4] 0.006 | [5] 0.05 | [6] 0.012 | [7] -0.062 | [8] -0.023 | [9] 0.37 | [10] 0.019 | [11] -0.122 | [12] 0.272 | [13] 0.008 | [14] -0.018 | [15] -0.07 | [16] 0.011 | [17] 0.095 | [18] 0.143 | [19] 0.002 | [20] 0.037
